Results are given in words; binding and its absence hold for the method and conditions named. Binding seen in cells or lysates may run through a third protein. Binding calls can cover weak binding; strength is not graded here.
Biological target: SPTLC1^FLAG ex2del (ALS variant missing the whole of exon 2) (UniProt O15269)
Experiment: co-IP

Protein sequences, listed by entry. Tags and fused reporters are not part of them. Lines headed by an entry give the natural chain unless they say otherwise; changes in a name come on top.
UniProt O15269: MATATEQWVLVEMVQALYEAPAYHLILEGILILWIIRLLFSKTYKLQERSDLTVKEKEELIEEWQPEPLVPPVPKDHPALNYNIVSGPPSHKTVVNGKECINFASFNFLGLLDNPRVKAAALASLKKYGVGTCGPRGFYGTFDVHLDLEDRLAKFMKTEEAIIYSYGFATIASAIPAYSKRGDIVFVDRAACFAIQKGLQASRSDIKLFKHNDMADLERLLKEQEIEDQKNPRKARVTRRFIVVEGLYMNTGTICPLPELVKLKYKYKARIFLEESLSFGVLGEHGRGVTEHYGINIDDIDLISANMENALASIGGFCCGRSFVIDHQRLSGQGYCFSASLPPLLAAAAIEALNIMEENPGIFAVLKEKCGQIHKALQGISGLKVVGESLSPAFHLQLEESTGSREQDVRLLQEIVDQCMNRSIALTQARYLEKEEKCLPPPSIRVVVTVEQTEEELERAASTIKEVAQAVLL

binding: binds
B1: SPTLC2 (serine-palmitoyltransferase subunit 2) (protein, UniProt O15270 1-562)
chain: MRPEPGGCCCRRTVRANGCVANGEVRNGYVRSSAAAAAAAAAGQIHHVTQNGGLYKRPFNEAFEETPMLVAVLTYVGYGVLTLFGYLRDFLRYWRIEKCHHATEREEQKDFVSLYQDFENFYTRNLYMRIRDNWNRPICSVPGARVDIMERQSHDYNWSFKYTGNIIKGVINMGSYNYLGFARNTGSCQEAAAKVLEEYGAGVCSTRQEIGNLDKHEELEELVARFLGVEAAMAYGMGFATNSMNIPALVGKGCLILSDELNHASLVLGARLSGATIRIFKHNNMQSLEKLLKDAIVYGQPRTRRPWKKILILVEGIYSMEGSIVRLPEVIALKKKYKAYLYLDEAHSIGALGPTGRGVVEYFGLDPEDVDVMMGTFTKSFGASGGYIGGKKELIDYLRTHSHSAVYATSLSPPVVEQIITSMKCIMGQDGTSLGKECVQQLAENTRYFRRRLKEMGFIIYGNEDSPVVPLMLYMPAKIGAFGREMLKRNIGVVVVGFPATPIIESRARFCLSAAHTKEILDTALKEIDEVGDLLQLKYSRHRLVPLLDRPFDETTYEETED

From doi:10.1101/2022.04.29.490031
